Test results as given in PubChem BioAssay AID332 (DTP/NCI, 2004).
The list shows only some results of the screen, not a fair sample: its compounds were picked by chemical class. Not every dose and run of a compound is shown. T/C gives the treated animals as a percentage of the vehicle group. Some entries show no survivor count and are marked so; the dose need not have been tolerated. Schedules are NCI's codes, read here as Q, the interval in days (D) or hours (H), X, the number of doses. Some entries were tested several times; their values stand side by side, smallest first.

System: mice, ADJ-PC-20 plasma cell tumor sc, T/C %
Test: NCI In Vivo Anticancer Drug Screen. Data for tumor model ADJ-PC-20 Plasma Cell (subcutaneous) in unknown mice
Conditions: T/C endpoint: mean tumor weight, evaluation day not shown, higher T/C = larger tumour
Protocol: The antitumor activity of compounds was measured in mice bearing transplantable tumors. Survival or tumor size were measured and the results are expressed as the measurement made in the treated group (T) divided by the measurement made in the vehicle treated control group (C). The tumor model used in this assay is ADJ-PC-20 Plasma Cell (subcutaneous) in unknown mice

[1] = dose: 2.5 mg/kg/injection, schedule: Q01DX010 (ip), vehicle: carboxymethylcellulose (CMC)
[2] = dose: 5.0 mg/kg/injection, schedule: Q01DX010 (ip), vehicle: carboxymethylcellulose (CMC)
[3] = dose: 10.0 mg/kg/injection, schedule: Q01DX010 (ip), vehicle: carboxymethylcellulose (CMC)

NC(Cc1ccccc1N(CCCl)CCCl)C(=O)O (stereo unspecified)
T/C (dose: 0.12 mg/kg/injection, schedule: Q01DX011 (ip), vehicle: carboxymethylcellulose (CMC)): 119 % of control [survivor count not shown]
T/C (dose: 0.25 mg/kg/injection, schedule: Q01DX011 (ip), vehicle: carboxymethylcellulose (CMC)): 104 % of control [survivor count not shown]
T/C (dose: 0.5 mg/kg/injection, schedule: Q01DX010 (ip), vehicle: carboxymethylcellulose (CMC)): 48 % of control [survivor count not shown]
T/C (dose: 0.5 mg/kg/injection, schedule: Q01DX011 (ip), vehicle: carboxymethylcellulose (CMC)): 64 % of control [survivor count not shown]
T/C (dose: 1.0 mg/kg/injection, schedule: Q01DX010 (ip), vehicle: carboxymethylcellulose (CMC)): 5 % of control [survivor count not shown]
T/C (dose: 1.0 mg/kg/injection, schedule: Q01DX011 (ip), vehicle: carboxymethylcellulose (CMC)): 57 % of control [survivor count not shown]
T/C (dose: 2.0 mg/kg/injection, schedule: Q01DX011 (ip), vehicle: carboxymethylcellulose (CMC)): 9 % of control [survivor count not shown]

NC(Cc1cccc(N(CCCl)CCCl)c1)C(=O)O (stereo unspecified)
T/C (dose: 0.04 mg/kg/injection, schedule: Q01DX010 (ip), vehicle: carboxymethylcellulose (CMC)): 93 % of control [survivor count not shown]
T/C (dose: 0.08 mg/kg/injection, schedule: Q01DX010 (ip), vehicle: carboxymethylcellulose (CMC)): 106 % of control [survivor count not shown]
T/C (dose: 0.16 mg/kg/injection, schedule: Q01DX010 (ip), vehicle: carboxymethylcellulose (CMC)): 108 % of control [survivor count not shown]
T/C (dose: 0.31 mg/kg/injection, schedule: Q01DX010 (ip), vehicle: carboxymethylcellulose (CMC)): 74 % of control [survivor count not shown]
T/C (dose: 0.63 mg/kg/injection, schedule: Q01DX010 (ip), vehicle: carboxymethylcellulose (CMC)): 6 % of control [survivor count not shown]

ClCCN(CCCl)c1ccccc1
T/C (dose: 2.4 mg/kg/injection, schedule: Q01DX010 (ip), vehicle: carboxymethylcellulose (CMC)): 60 % of control [survivor count not shown]
T/C (dose: 3.12 mg/kg/injection, schedule: Q01DX010 (ip), vehicle: methylcellulose (MC)): 15 % of control [survivor count not shown]
T/C (dose: 4.7 mg/kg/injection, schedule: Q01DX010 (ip), vehicle: carboxymethylcellulose (CMC)): 23 % of control [survivor count not shown]
T/C (dose: 6.25 mg/kg/injection, schedule: Q01DX010 (ip), vehicle: methylcellulose (MC)): 6 % of control [survivor count not shown]

ClCCN(CCCl)Cc1nc2ccccc2[nH]1
T/C (dose: 1.25 mg/kg/injection, schedule: Q01DX010 (ip), vehicle: carboxymethylcellulose (CMC)): 54 % of control [survivor count not shown]
T/C [1]: 109 % of control [survivor count not shown]
T/C [2]: 61 [survivor count not shown] and 73 % of control [survivor count not shown]
T/C [3]: 11 [survivor count not shown] and 35 % of control [survivor count not shown]

O=C(O)CN(CCCl)CCCl
T/C (dose: 0.5 mg/kg/injection, schedule: Q01DX010 (ip), vehicle: saline): 106 % of control [survivor count not shown]
T/C (dose: 1.0 mg/kg/injection, schedule: Q01DX010 (ip), vehicle: saline): 121 % of control [survivor count not shown]
T/C (dose: 2.0 mg/kg/injection, schedule: Q01DX010 (ip), vehicle: saline): 119 % of control [survivor count not shown]
T/C (dose: 4.0 mg/kg/injection, schedule: Q01DX010 (ip), vehicle: saline): 83 % of control [survivor count not shown]

ClCCNCCCl
T/C (dose: 3.1 mg/kg/injection, schedule: Q01DX010 (ip), vehicle: carboxymethylcellulose (CMC)): 111 % of control [survivor count not shown]
T/C (dose: 6.25 mg/kg/injection, schedule: Q01DX010 (ip), vehicle: carboxymethylcellulose (CMC)): 156 % of control [survivor count not shown]
T/C (dose: 12.5 mg/kg/injection, schedule: Q01DX010 (ip), vehicle: carboxymethylcellulose (CMC)): 76 % of control [survivor count not shown]
T/C (dose: 25.0 mg/kg/injection, schedule: Q01DX010 (ip), vehicle: carboxymethylcellulose (CMC)): 60 % of control [survivor count not shown]

CC(C(=O)O)N(CCCl)CCCl (stereo unspecified)
T/C [1]: 87 % of control [survivor count not shown]
T/C [2]: 107 % of control [survivor count not shown]
T/C [3]: 81 % of control [survivor count not shown]
